According to patent US8529542B2, “Method and system for sustained-release of sclerosing agent” (UTI Limited Partnership, priority 2007, dated 2013):
For at least one compound, name, drawing or mass did not settle the structure.

What was measured:
[1] = test system: rabbit model of pleurodesis; assay: Direct daily dosing at low levels, rabbit model of pleurodesis; assay type: in vivo
Description: These experiments were carried out in order to determine if low doses of sclerosing agents could result in successful pleurodesis when administered in a repeated fashion. Using daily doses of silver nitrate or doxycycline in decreasing doses starting at the lower limit of what has previously been reported to be effective, further decreases in dosing were administered utilizing single day, 5 day or 14 day regimens. Theoretically utilizing lower doses on a repeated basis may reduce the frequency and/or severity of side effects.
All experiments were carried out in a rabbit model of pleurodesis which has been extensively utilized in the field of pleurodesis in many centers around the world. As explained in further detail below, standard pleurodesis is score graded one to 8 and is used for assessment of the efficacy of pleurodesis, the number one representing a normal pleural space while 8 represents complete pleural symphysis. A score of 5 or higher is usually considered consistent with a successful pleurodesis.
A total of 18 animals were treated with doxycycline at doses of 1 mg/kg, 5 mg/kg, or 10 mg/kg. Animals (n=2) in the 10 mg/kg group received only the single day injection, animals (n=2/group) in the 5 mg/kg range received either 1 day, 5 days or 14 days injection, and animals in the lowest dose range of 1 mg/kg (n=2/group) received repeated injections over 5 days or 14 days. The results were compared with the placebo groups (n=2/group) which were given saline injections over either 1, 5 or 14 days. All doses were administered after a daily drainage. At the end of the treatment period, the animals were euthanized and pleurodesis was scored according to the standard scoring system shown in FIG. 5.
A total of 20 animals were treated with silver nitrate at dosing concentrations of 0.05%, 0.085%, 0.425% and 0.85%. […] At the end of the treatment period, the animals were euthanized and pleurodesis was scored according to the standard scoring table (shown in FIG. 5). Degree of pleural inflammation and fibrosis was also evaluated.

[2] = test system: rabbit model of pleurodesis; settings: single dose; cited from earlier work

C[C@H]1c2cccc(O)c2C(=O)C2=C(O)[C@]3(O)C(=O)C(C(N)=O)=C(O)[C@@H](N(C)C)[C@@H]3[C@@H](O)[C@@H]21 [doxycycline]
pleurodesis outcome ([1]; 1 mg/kg over 5 days): ineffective at causing pleurodesis | pleurodesis outcome ([1]; 1 mg/kg over 14 days): ineffective at causing pleurodesis | pleurodesis outcome ([1]; 5 mg/kg repeated over 5 days): did not result in pleurodesis | lowest reported effective dose [2]: 10 mg/kg
